Results deposited as PubChem BioAssay AID1259308 (NCATS, 2017)

Screen: 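Knock-downs that increase output of a recombinant reporter protein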 (primary screen)
System: human HEK293 embryonic kidney cells stably expressing firefly luciferase (HEK-CMV-Luc2-Hygro)
Reagents: single siRNA against human genes, 0.8 pmol siRNA per well
Time to read-out: 72 h
Measurement: 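Luciferase light (ONE-Glo) measured on one replicate plate set and viability (CellTiter-Glo) on the other, scaled to a negative control siRNA, with robust z-scores and luciferase per cell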
Scale: total luciferase, z-score: higher = more reporter protein produced
Hit rule: 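Active when the median/MAD z-score for overall luciferase is greater than 3; a gene was taken forward for validation with new siRNAs if at least two of its three siRNAs passed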
Calls: active = raised luciferase; inactive = no rise
Shown is an unselected part of about 59,000 reagents tested. In the full data, about 1,510 (2.6%) are marked active. 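Calls use total luciferase alone and ignore viability, so some active siRNAs may act by altering cell number.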 Reagents against one gene are numbered here. Not all columns of the deposit are shown.

no.	target	reagent	total luciferase, z-score	Outcome
1	IMPG1	1	1.02	inactive
2	IMPG1	2	0.0422	inactive
3	IMPG1	3	0.937	inactive
4	FGF23	1	-0.907	inactive
5	FGF23	2	0.425	inactive
6	FGF23	3	-0.739	inactive
7	MICAL1	1	1.2	inactive
8	MICAL1	2	0.091	inactive
9	MICAL1	3	-1.8	inactive
10	RPS8	1	-2.44	inactive
11	RPS8	2	-1.57	inactive
12	RPS8	3	-2.3	inactive
13	POGZ	1	0.109	inactive
14	POGZ	2	1.82	inactive
15	POGZ	3	0.676	inactive
16	BRF2	1	0.54	inactive
17	BRF2	2	1.73	inactive
18	BRF2	3	0.0377	inactive
19	KDF1	1	-0.41	inactive
20	KDF1	2	1.44	inactive
21	KDF1	3	-0.61	inactive
22	KIF18A	1	0.0787	inactive
23	KIF18A	2	-0.166	inactive
24	KIF18A	3	-0.505	inactive
25	GCLM	1	-0.344	inactive
26	GCLM	2	0.0875	inactive
27	GCLM	3	-0.363	inactive
28	MAST3	1	1.86	inactive
29	MAST3	2	-2.01	inactive
30	MAST3	3	-0.271	inactive
31	UBQLN3	1	0.472	inactive
32	UBQLN3	2	-0.347	inactive
33	UBQLN3	3	0.28	inactive
34	CFAP97D1	1	0.278	inactive
35	CFAP97D1	2	-2.14	inactive
36	CFAP97D1	3	0.051	inactive
37	GNB1L	1	-0.0653	inactive
38	GNB1L	2	0.555	inactive
39	GNB1L	3	0.382	inactive
40	NELL2	1	-0.554	inactive
41	NELL2	2	0.0242	inactive
42	NELL2	3	-0.0932	inactive

Continued (10 carried over from the part before).
no.	target	reagent	total luciferase, z-score	Outcome
33	UBQLN3	3	0.28	inactive
34	CFAP97D1	1	0.278	inactive
35	CFAP97D1	2	-2.14	inactive
36	CFAP97D1	3	0.051	inactive
37	GNB1L	1	-0.0653	inactive
38	GNB1L	2	0.555	inactive
39	GNB1L	3	0.382	inactive
40	NELL2	1	-0.554	inactive
41	NELL2	2	0.0242	inactive
42	NELL2	3	-0.0932	inactive
43	ITGA9	1	0.872	inactive
44	ITGA9	2	-1.35	inactive
45	ITGA9	3	-1.26	inactive
46	ADORA2B	1	-0.577	inactive
47	ADORA2B	2	0.817	inactive
48	ADORA2B	3	0.0255	inactive
49	CCNL1	1	2.27	inactive
50	CCNL1	2	-1.01	inactive
51	CCNL1	3	-0.232	inactive
52	EMID1	1	0.0642	inactive
53	EMID1	2	-0.0926	inactive
54	EMID1	3	0.369	inactive
55	TMEM187	1	0.268	inactive
56	TMEM187	2	0.531	inactive
57	TMEM187	3	-0.719	inactive
58	FAM32A	1	-2.5	inactive
59	FAM32A	2	0.389	inactive
60	FAM32A	3	-0.637	inactive
61	PPP1R26	1	1.7	inactive
62	PPP1R26	2	0.891	inactive
63	PPP1R26	3	1.57	inactive
64	ZCCHC7	1	-0.735	inactive
65	ZCCHC7	2	0.173	inactive
66	ZCCHC7	3	0.822	inactive
67	RPL10	1	-0.896	inactive
68	RPL10	2	-2.06	inactive
69	RPL10	3	-2.81	inactive
70	AP3S2	1	-0.396	inactive
71	AP3S2	2	0.418	inactive
72	AP3S2	3	0.112	inactive
73	BCL2L10	1	-0.873	inactive
74	BCL2L10	2	-0.0735	inactive
75	BCL2L10	3	-0.16	inactive
